The other results are listed elsewhere or left out.
What was measured:
Assay in all cases: log2 fold change, soluble protein after heating vs DMSO (PISA); higher = thermal stabilisation; K562 lysate, 10 uM; active = over 0.2 and 3.5 SD of the protein, either way, in both replicates (recomputed)
ibrutinib = compound: C=CC(=O)N1CCC[C@@H](n2nc(-c3ccc(Oc4ccccc4)cc3)c3c(N)ncnc32)C1 [ibrutinib]
Summary of the method: (§1)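 A 30 min treatment with 10 μM compound was applied to crude K562 extract at 1 mg/mL protein in PBS pH 7.4 with 1 mM MgCl2. Heating for 3 min spanned 48°C-58°C, after which aliquots were pooled, adjusted to 0.5% NP-40 at 4°C and spun at 21,000xg for 90 min. TMTpro 16plex LC-MS/MS of the supernatant, with channel sums equalised, gave values recorded as log-two fold change in thermal stability against solvent controls, from duplicates.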

The chains behind the UniProt entries cited, without tags or fusion partners. Where a name states a change or a piece, a line headed by the entry shows the natural chain unless it says otherwise.
UniProt Q9NP77: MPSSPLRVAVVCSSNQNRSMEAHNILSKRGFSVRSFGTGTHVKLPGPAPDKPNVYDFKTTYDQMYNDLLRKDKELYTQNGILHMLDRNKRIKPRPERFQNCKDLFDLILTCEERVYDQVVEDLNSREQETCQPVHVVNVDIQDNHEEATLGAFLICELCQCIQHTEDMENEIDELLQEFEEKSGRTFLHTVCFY
UniProt P49458: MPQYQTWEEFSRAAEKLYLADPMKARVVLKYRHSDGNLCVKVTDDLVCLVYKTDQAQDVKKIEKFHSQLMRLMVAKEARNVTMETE
UniProt Q9UQ35: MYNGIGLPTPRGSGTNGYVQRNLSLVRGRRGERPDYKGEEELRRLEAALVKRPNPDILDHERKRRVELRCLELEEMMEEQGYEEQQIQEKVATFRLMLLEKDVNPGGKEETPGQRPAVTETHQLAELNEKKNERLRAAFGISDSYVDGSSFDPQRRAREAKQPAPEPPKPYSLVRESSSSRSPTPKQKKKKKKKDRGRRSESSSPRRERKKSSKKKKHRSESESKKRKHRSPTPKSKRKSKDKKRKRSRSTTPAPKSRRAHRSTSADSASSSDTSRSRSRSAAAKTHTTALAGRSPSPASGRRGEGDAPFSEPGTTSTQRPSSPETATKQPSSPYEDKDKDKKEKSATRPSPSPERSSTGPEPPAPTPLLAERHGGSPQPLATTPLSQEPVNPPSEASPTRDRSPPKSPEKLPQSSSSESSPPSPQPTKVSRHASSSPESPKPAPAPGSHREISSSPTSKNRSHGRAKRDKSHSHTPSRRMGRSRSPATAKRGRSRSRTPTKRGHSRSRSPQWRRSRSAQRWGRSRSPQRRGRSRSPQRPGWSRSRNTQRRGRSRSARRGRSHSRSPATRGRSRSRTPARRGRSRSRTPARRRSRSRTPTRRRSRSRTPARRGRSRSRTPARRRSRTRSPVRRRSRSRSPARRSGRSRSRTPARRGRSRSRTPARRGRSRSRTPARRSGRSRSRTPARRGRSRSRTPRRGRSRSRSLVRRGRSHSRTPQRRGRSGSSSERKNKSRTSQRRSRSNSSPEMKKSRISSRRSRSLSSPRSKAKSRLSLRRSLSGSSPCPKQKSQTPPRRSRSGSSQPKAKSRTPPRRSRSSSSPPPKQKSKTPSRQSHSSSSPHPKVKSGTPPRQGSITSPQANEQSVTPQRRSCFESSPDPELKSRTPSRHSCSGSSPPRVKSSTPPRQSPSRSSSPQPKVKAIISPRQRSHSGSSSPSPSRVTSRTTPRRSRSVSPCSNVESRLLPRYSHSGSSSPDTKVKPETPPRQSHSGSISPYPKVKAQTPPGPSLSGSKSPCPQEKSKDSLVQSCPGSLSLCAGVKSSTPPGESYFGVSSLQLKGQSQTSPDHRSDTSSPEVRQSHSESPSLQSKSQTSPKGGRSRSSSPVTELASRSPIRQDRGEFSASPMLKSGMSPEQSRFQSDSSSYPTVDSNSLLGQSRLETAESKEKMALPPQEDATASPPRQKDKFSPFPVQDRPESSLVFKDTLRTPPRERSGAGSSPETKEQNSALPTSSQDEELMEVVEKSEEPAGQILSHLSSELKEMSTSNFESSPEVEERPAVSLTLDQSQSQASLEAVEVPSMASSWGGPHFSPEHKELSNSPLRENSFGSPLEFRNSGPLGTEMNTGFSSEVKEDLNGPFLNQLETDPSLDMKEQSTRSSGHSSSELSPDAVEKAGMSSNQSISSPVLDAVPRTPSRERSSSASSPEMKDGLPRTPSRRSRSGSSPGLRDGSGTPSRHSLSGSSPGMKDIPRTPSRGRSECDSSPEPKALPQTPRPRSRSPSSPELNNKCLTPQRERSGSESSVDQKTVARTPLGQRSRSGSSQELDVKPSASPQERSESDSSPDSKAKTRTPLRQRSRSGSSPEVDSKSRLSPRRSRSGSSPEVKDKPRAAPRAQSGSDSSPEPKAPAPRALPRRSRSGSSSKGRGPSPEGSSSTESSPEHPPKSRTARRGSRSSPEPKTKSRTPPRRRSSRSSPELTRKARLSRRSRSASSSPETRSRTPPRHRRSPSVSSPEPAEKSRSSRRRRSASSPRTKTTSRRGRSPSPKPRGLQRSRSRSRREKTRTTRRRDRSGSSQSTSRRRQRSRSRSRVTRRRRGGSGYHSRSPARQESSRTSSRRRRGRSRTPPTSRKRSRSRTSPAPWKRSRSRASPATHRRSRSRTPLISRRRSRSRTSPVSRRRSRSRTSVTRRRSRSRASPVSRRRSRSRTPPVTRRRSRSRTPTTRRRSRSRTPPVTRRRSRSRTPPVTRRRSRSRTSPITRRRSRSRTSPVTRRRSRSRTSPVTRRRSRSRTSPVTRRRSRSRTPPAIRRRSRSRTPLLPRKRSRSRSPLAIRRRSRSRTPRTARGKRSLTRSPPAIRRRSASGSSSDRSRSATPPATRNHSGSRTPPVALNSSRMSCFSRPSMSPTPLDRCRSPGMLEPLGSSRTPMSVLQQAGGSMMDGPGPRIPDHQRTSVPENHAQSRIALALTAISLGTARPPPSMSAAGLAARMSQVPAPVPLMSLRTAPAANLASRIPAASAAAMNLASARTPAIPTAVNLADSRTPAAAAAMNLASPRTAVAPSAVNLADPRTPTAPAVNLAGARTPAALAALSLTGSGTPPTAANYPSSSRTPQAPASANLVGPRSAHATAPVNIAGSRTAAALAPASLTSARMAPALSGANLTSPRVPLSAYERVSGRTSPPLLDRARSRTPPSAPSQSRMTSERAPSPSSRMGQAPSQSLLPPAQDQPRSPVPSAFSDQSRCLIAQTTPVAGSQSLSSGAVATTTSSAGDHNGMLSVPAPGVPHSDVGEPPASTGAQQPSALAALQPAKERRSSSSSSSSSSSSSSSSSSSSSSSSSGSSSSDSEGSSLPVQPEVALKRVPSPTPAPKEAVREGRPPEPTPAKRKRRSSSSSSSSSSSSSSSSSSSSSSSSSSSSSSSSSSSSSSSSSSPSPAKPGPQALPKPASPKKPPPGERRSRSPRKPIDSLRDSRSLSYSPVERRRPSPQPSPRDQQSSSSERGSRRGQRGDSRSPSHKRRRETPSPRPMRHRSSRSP
UniProt Q5W111: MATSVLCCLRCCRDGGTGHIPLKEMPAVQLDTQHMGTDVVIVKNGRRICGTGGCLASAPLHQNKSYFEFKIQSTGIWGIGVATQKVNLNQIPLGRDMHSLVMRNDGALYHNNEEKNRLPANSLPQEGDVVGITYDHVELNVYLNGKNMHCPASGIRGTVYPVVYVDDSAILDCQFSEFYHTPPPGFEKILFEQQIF
UniProt Q96JI7: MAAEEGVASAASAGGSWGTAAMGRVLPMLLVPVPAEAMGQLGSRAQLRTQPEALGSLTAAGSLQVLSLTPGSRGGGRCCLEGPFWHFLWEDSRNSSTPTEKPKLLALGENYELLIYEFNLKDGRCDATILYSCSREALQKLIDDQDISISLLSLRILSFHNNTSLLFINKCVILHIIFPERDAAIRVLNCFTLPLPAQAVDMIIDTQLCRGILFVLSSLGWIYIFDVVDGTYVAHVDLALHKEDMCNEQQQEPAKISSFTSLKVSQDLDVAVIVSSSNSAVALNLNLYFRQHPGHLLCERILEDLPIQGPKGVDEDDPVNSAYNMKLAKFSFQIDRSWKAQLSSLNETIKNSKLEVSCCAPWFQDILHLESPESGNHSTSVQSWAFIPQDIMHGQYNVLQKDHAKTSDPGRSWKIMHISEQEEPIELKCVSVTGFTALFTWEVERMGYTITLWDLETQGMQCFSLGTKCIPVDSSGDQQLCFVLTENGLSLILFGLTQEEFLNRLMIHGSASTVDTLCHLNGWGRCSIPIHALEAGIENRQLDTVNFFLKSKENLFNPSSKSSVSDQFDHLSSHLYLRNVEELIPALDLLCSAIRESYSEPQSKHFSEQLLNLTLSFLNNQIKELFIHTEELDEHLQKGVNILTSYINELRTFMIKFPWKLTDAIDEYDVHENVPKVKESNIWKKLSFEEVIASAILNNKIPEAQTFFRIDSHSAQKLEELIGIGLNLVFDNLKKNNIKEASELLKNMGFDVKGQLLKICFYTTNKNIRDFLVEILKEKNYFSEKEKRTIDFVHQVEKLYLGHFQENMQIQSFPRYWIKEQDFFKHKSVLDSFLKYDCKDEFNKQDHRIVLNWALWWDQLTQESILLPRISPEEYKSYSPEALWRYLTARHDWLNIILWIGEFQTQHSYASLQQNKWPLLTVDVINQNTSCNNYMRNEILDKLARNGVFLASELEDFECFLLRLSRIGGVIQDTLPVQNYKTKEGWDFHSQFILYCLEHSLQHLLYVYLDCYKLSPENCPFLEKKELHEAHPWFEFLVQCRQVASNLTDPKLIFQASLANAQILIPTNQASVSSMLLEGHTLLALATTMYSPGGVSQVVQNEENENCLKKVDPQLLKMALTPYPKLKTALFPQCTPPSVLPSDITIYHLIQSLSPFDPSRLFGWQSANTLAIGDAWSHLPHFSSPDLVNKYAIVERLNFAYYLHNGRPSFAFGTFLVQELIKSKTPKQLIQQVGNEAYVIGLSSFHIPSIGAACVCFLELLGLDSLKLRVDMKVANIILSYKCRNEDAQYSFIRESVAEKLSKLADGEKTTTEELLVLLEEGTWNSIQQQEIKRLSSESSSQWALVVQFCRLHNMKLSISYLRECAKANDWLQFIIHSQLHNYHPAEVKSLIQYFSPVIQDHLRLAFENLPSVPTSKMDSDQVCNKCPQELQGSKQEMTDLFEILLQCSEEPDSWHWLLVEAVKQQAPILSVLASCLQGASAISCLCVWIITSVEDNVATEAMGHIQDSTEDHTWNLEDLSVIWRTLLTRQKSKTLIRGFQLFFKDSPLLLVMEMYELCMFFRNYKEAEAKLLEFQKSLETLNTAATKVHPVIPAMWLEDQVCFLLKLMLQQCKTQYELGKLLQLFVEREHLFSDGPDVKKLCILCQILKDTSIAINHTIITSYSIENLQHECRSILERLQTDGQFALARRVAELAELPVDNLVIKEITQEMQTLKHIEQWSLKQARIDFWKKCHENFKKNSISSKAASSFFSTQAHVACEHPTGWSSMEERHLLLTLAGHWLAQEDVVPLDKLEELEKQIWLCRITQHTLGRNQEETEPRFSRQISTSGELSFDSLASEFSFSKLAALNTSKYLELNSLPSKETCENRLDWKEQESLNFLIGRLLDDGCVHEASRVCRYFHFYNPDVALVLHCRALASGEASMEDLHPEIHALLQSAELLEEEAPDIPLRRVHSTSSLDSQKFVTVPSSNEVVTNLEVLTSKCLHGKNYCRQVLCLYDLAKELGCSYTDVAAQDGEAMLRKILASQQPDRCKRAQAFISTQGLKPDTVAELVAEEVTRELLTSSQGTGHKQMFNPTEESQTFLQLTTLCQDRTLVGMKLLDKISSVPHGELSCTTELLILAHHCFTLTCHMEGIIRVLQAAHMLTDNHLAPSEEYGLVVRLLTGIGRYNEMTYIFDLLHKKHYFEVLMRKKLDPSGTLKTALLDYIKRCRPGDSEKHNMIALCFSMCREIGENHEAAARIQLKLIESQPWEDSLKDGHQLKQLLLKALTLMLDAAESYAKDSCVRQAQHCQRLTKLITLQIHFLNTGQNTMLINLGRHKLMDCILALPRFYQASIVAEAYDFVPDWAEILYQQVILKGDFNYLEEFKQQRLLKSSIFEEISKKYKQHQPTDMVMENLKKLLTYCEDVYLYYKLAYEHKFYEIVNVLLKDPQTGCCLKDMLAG
UniProt P78362, whole entry, looked up: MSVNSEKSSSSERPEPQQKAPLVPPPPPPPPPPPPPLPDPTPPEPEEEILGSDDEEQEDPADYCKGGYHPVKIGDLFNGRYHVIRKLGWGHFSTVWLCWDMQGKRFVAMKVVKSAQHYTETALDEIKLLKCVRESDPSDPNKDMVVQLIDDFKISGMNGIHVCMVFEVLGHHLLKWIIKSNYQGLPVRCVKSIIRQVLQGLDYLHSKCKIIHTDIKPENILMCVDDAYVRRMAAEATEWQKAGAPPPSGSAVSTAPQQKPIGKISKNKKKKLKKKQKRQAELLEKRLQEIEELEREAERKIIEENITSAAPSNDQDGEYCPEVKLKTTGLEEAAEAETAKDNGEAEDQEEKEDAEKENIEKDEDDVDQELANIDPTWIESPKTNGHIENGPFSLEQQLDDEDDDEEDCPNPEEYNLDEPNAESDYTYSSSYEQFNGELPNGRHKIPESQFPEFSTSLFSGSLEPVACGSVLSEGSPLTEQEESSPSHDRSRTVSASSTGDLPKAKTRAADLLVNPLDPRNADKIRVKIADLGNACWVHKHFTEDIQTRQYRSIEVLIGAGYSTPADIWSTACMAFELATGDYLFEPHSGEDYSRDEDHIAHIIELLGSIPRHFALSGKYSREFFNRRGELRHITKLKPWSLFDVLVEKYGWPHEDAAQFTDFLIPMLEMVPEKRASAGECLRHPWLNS
UniProt Q01130: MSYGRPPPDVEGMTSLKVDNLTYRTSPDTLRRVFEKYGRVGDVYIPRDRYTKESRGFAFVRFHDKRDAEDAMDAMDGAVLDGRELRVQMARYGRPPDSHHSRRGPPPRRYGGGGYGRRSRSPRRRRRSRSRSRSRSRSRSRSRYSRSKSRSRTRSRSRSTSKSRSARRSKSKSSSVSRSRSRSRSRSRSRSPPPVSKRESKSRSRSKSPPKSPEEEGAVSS

[1] = compound: CC(=O)c1cnc2ccc(-c3cc(Cl)c(O)c(Cl)c3)nc2c1N[C@H]1CC[C@H](CN(C)C)CC1
Summary of the method: as §1

ralimetinib = compound: CC(C)(C)Cn1c(N)nc2ccc(-c3[nH]c(C(C)(C)C)nc3-c3ccc(F)cc3)nc21 [ralimetinib]
Summary of the method: as §1

[2] = compound: CC(C)(O)CC(=O)NCCn1ccc2ncnc(Nc3ccc(Oc4cccc(C(F)(F)F)c4)c(Cl)c3)c21
Summary of the method: as §1

[3] = compound: CC(C)C1=C2N=C(C=C(N2N=C1)NCC3=CC=CC=C3)NCCCCCCN
Summary of the method: as §1

[4] = compound: CC1=C(C(CC(=O)N1)C2=CC=C(C=C2)C(F)(F)F)C(=O)NC3=C(C=C4C(=C3)C=NN4)F
Summary of the method: as §1

[5] = compound: CC1=C(C2=C(C=C1)C(=O)C3=CC=CC=C3N2CCCN)C
Summary of the method: as §1

[6] = compound: CC1=C(C=C(C=C1)NC(=O)C2=CC(=CC=C2)C(C)(C)C#N)NC3=CC4=C(C=C3)N=CN(C4=O)C
Summary of the method: as §1

[7] = compound: CC1=C(C=C(C=C1)NC(=O)C2=CC(=CC=C2)N(C)C)NC(=O)C3=CC=C(C=C3)O
Summary of the method: as §1

[8] = compound: CC1=CC=C(C=C1)SC2=C3C=C(SC3=CN=C2)C(=O)N
Summary of the method: as §1

vemurafenib = compound: CCCS(=O)(=O)Nc1ccc(F)c(C(=O)c2c[nH]c3ncc(-c4ccc(Cl)cc4)cc23)c1F [vemurafenib]
Summary of the method: as §1

[9] = compound: CCCS(=O)(=O)Nc1ccc(F)c(C(=O)c2c[nH]c3ncc(Cl)cc23)c1F
Summary of the method: as §1

barasertib = compound: CCN(CCCOc1ccc2c(Nc3cc(CC(=O)Nc4cccc(F)c4)[nH]n3)ncnc2c1)CCOP(=O)(O)O [barasertib]
Summary of the method: as §1

[10] = compound: CC[C@@H]1C(=O)N(C)c2cnc(Nc3ccc(C(=O)NC4CCN(C)CC4)cc3OC)nc2N1C1CCCC1
Summary of the method: as §1

volasertib = compound: CC[C@@H]1C(=O)N(C)c2cnc(Nc3ccc(C(=O)N[C@H]4CC[C@H](N5CCN(CC6CC6)CC5)CC4)cc3OC)nc2N1C(C)C [volasertib]
Summary of the method: as §1

[11] = compound: CCn1c(C(=O)N(C2CC2)C2CC2)cc2c3c(ncn3C)c(Nc3cc(C)n(C)n3)nc21
Summary of the method: as §1

[12] = compound: CCn1cc(-c2ccnc3[nH]c(-c4cccc(CN(C)C)c4)cc23)c(-c2ccc(NC(=O)N(C)C)cc2)n1
Summary of the method: as §1

[13] = compound: CN1CCC(CNc2ccc3ncc(-c4cccc(OC(F)(F)F)c4)n3n2)CC1
Summary of the method: as §1

saracatinib = compound: CN1CCN(CCOc2cc(OC3CCOCC3)c3c(Nc4c(Cl)ccc5c4OCO5)ncnc3c2)CC1 [saracatinib]
Summary of the method: as §1

sotrastaurin = compound: CN1CCN(c2nc(C3=C(c4c[nH]c5ccccc45)C(=O)NC3=O)c3ccccc3n2)CC1 [sotrastaurin]
Summary of the method: as §1

Target	log2 fold change (ibrutinib)	log2 fold change [1]	log2 fold change (ralimetinib)	log2 fold change [2]	log2 fold change [3]	log2 fold change [4]	log2 fold change [5]	log2 fold change [6]	log2 fold change [7]	log2 fold change [8]	log2 fold change (vemurafenib)	log2 fold change [9]	log2 fold change (barasertib)	log2 fold change [10]	log2 fold change (volasertib)	log2 fold change [11]	log2 fold change [12]	log2 fold change [13]	log2 fold change (saracatinib)	log2 fold change (sotrastaurin)
ST7 (UniProt Q9NRC1)	inactive: 0.082	inactive: 0.015	inactive: 0	inactive: -0.069	inactive: 0.025	inactive: 0.061	inactive: -0.042	inactive: -0.104	inactive: 0.029	inactive: 0.126	inactive: -0.057	inactive: -0.026	inactive: 0.027	inactive: 0.097	inactive: 0.044	inactive: 0.153	inactive: 0.001	inactive: 0.154	inactive: 0.036	inactive: -0.023
SSU72 (UniProt Q9NP77)	inactive: 0.075	inactive: 0.031	inactive: 0.026	inactive: -0.002	inactive: 0.038	inactive: -0.018	inactive: 0.025	inactive: 0.001	inactive: 0.015	inactive: 0.03	inactive: -0.018	inactive: 0.001	inactive: 0.018	inactive: -0.064	inactive: -0.045	inactive: -0.049	active: -0.325	inactive: 0.171	inactive: -0.001	inactive: 0.018
SRP9 (UniProt P49458)	inactive: -0.011	inactive: -0.007	inactive: -0.011	inactive: 0.014	inactive: 0.033	inactive: 0.016	inactive: -0.014	inactive: -0.031	inactive: -0.001	inactive: 0.008	inactive: -0.01	inactive: -0.009	inactive: 0.012	inactive: -0.019	inactive: 0.022	inactive: 0.013	inactive: -0.029	inactive: -0.029	inactive: -0.018	inactive: -0.04
STAT5A (UniProt P42229)	inactive: 0.012	inactive: 0.026	inactive: -0.004	inactive: 0.01	inactive: 0.025	inactive: -0.019	inactive: 0.021	inactive: 0.01	inactive: 0.021	inactive: -0.004	inactive: 0	inactive: 0.024	inactive: 0.042	inactive: -0.027	inactive: -0.044	inactive: -0.003	inactive: 0.044	inactive: -0.047	inactive: 0.021	inactive: -0.002
SRGAP2 (UniProt O75044)	inactive: 0.028	inactive: 0.015	inactive: 0	inactive: -0.025	inactive: -0.016	inactive: -0.009	inactive: -0.014	inactive: -0.011	inactive: 0.057	inactive: -0.003	inactive: 0.032	inactive: 0.031	inactive: -0.007	inactive: 0.032	inactive: -0.019	inactive: 0.023	inactive: 0.003	inactive: 0.022	inactive: -0.011	inactive: -0.013
SRRM2 (UniProt Q9UQ35)	inactive: 0.07	inactive: -0.02	inactive: 0.022	inactive: -0.024	inactive: 0.024	inactive: -0.003	inactive: -0.008	inactive: 0.05	inactive: 0.01	inactive: -0.011	inactive: 0.01	inactive: -0.015	inactive: -0.015	inactive: 0.056	inactive: 0.015	inactive: -0.013	inactive: -0.043	inactive: 0.04	inactive: -0.002	inactive: 0.011
SPTBN1 (UniProt Q01082)	inactive: -0.002	inactive: -0.002	inactive: 0.008	inactive: -0.023	inactive: -0.011	inactive: -0.003	inactive: 0.006	inactive: -0.004	inactive: 0.008	inactive: 0.011	inactive: 0.007	inactive: 0.018	inactive: 0.022	inactive: 0	inactive: -0.03	inactive: -0.006	inactive: -0.024	inactive: -0.022	inactive: 0.031	inactive: -0.008
SRPK1 (UniProt Q96SB4)	inactive: 0.031	inactive: 0.008	inactive: -0.004	inactive: -0.001	inactive: -0.005	inactive: -0.004	inactive: -0.018	inactive: 0.006	inactive: -0.029	inactive: 0.011	inactive: 0.003	inactive: 0.029	inactive: -0.014	inactive: 0.093	inactive: -0.01	inactive: 0.008	inactive: 0.055	inactive: -0.072	inactive: 0.012	inactive: 0.021
SPATA5L1 (UniProt Q9BVQ7)	inactive: -0.007	inactive: 0.02	inactive: 0.037	inactive: -0.054	inactive: 0.018	inactive: -0.004	inactive: -0.052	inactive: -0.007	inactive: 0.026	inactive: -0.008	inactive: 0.03	inactive: 0.015	inactive: 0.052	inactive: -0.058	inactive: -0.135	inactive: 0.014	inactive: -0.023	inactive: 0.012	inactive: 0.024	inactive: 0.015
SPRYD7 (UniProt Q5W111)	inactive: 0.034	inactive: -0.004	inactive: -0.005	inactive: -0.027	inactive: 0.03	inactive: -0.008	inactive: 0.001	inactive: -0.055	inactive: 0	inactive: -0.001	inactive: 0.011	inactive: 0.02	inactive: 0.002	inactive: -0.011	inactive: 0.048	inactive: -0.026	inactive: -0.026	inactive: 0.009	inactive: 0.013	inactive: -0.096
SPHK1 isoform 2 (UniProt Q9NYA1)	inactive: -0.088	inactive: 0.029	inactive: 0.124	inactive: 0.061	inactive: 0.021	inactive: 0.041	inactive: 0.041	active: -0.276	inactive: -0.061	inactive: -0.036	inactive: -0.009	inactive: 0.034	inactive: 0.008	inactive: -0.051	inactive: -0.022	inactive: 0.171	inactive: -0.003	inactive: 0.056	inactive: 0.086	inactive: 0.029
SPG11 (UniProt Q96JI7)	inactive: 0.077	inactive: 0.068	inactive: 0.049	inactive: -0.024	inactive: -0.011	inactive: -0.048	inactive: -0.063	inactive: -0.061	inactive: 0.098	inactive: 0.007	inactive: 0.084	inactive: -0.011	inactive: 0.006	inactive: -0.042	inactive: -0.037	inactive: -0.05	inactive: 0.06	inactive: -0.13	inactive: 0.077	inactive: 0.007
SRPK2 isoform 2 (UniProt P78362)	inactive: -0.021	inactive: -0.009	inactive: 0.01	inactive: -0.016	inactive: -0.026	inactive: -0.007	inactive: -0.014	inactive: 0	inactive: -0.022	inactive: 0.003	inactive: 0.009	inactive: 0.022	inactive: 0	inactive: 0.022	inactive: -0.019	inactive: 0.01	inactive: -0.115	inactive: 0.054	inactive: -0.014	inactive: 0.049
STAU1 (UniProt O95793)	inactive: 0.043	inactive: -0.021	inactive: 0.03	inactive: -0.011	inactive: 0	inactive: 0.017	inactive: -0.022	inactive: -0.037	inactive: 0.018	inactive: 0.022	inactive: 0.027	inactive: 0.003	inactive: 0.01	inactive: 0	inactive: -0.013	inactive: 0.069	inactive: 0.25	inactive: -0.103	inactive: 0.004	inactive: -0.039
SSR1 (UniProt P43307)	inactive: 0.019	inactive: 0.04	inactive: -0.019	inactive: -0.038	inactive: -0.072	inactive: 0.03	inactive: 0.021	inactive: 0.006	inactive: 0.005	inactive: 0.041	inactive: -0.012	inactive: -0.026	inactive: -0.051	inactive: 0.021	inactive: 0.004	inactive: -0.03	inactive: -0.1	inactive: 0.054	inactive: 0.024	inactive: 0.039
SRSF2 (UniProt Q01130)	inactive: 0.021	inactive: -0.009	inactive: 0.034	inactive: -0.065	inactive: -0.013	inactive: -0.021	inactive: -0.015	inactive: 0.016	inactive: 0.028	inactive: -0.018	inactive: -0.001	inactive: -0.014	inactive: -0.007	inactive: 0.02	inactive: 0.002	inactive: -0.065	inactive: -0.232	inactive: 0.153	inactive: 0.033	inactive: 0.024

A few values from the results shown:
Entry of SPTBN1 (UniProt Q01082) under log2 fold change [10]: inactive: 0
Entry of SRP9 (UniProt P49458) under log2 fold change [2]: inactive: 0.014
